{
  "source": "patent US20210062160A1",
  "about": "“THERAPEUTIC AND IMMUNOMODULATORY BACTERIOPHAGE FORMULATIONS AND METHODS FOR MAKING AND USING THEM” (priority 2017, published 2021)",
  "system": "MDCK cells",
  "assay": "Inhibition of T4 phage transcytosis across MDCK monolayers by chemical inhibitors",
  "format": "cell-based, canine",
  "settings": "T4 phages across inhibitor-treated MDCK cells vs solvent control",
  "method": "All cells were seeded at a density of 0.5-1×10^6 cells per well and allowed to grow to confluency (3-5 days). For apical-to-basal transcytosis the apical wells were incubated in Hanks Buffered Salt Solution (HBSS) at pH 6.0 and basal cells in HBSS at pH 7.4 for two hours to mimic pH-dependent uptake (2). For basal-to-apical transcytosis the buffers were switched. Bacteriophages were applied with the HBBS pH 6.0 buffer, incubated with cells for two hours and phage from both apical and basal cell layers quantified by plating with bacterial host.\nPermeation of phages throughout the eukaryotic cell. The mechanism of phage access to Eukaryotic cells remains ambiguous (22, 24, 29). […] Inhibition of phage transcytosis was reported as the percentage of phages transcytosed across inhibitor-treated cells, compared to cells treated with a solvent control (FIG. 3A and Table S3).\nBefore this invention, the mechanism of phage transcytosis across eukaryotic cells remained ambiguous, see e.g., Duerkop et al., 2013, Resident viruses and their interactions with the immune system, Nat Immunol 14:654-9; Merril, et al., 1996, Long-circulating bacteriophage as antibacterial agents, Proc Natl Acad Sci 93:3188-3192; Aronow, et al., 1964, Electron microscopy of in vitro endocytosis of T2 phage by cells from rabbit perioneal exudate, J Exp Med 120. […]",
  "note": "At least one structure is not confirmed: it was looked up by name or label, or the drawing left a doubt.",
  "data": [
    {"smiles": "COC[C@H]1OC(=O)c2coc3c2[C@@]1(C)C1=C(C3=O)[C@@H]2CCC(=O)[C@@]2(C)C[C@H]1OC(C)=O", "note": "[Wortmannin]", "values": [
      {"measurement": "effect of inhibitor on phage transcytosis", "value": "no significant treatment effects"}
    ]}
  ]
}
